Some of the results follow. These are further read-outs of the screen, such as a control signal, another cell line or another target. No call is given for them. The list favours compounds with an active or inconclusive main result. Potencies come from curve fits of mixed quality, noted in brackets.

The assay is described as follows: qHTS Assay for Lipid Storage Modulators in Drosophila S3 Cells.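 On cell number change: cells counted by Cell Tracker Red CMTPX staining in the red channel.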 The note with it: BODIPY lipid droplet fluorescence, 18-24 h; for cell number change: measured here: cell count max response, cells fed with added oleic acid. The gist of the method: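 Drosophila S3 cells got compounds at several concentrations plus oleic acid (400 uM solution). Laser-scanning cytometry with 488 nm excitation read lipid droplets at 500-530 nm and cells at 575-640 nm. Percent activity was relative to 20 uM Triacsin C.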

[1] abbreviates: measured here: cell number channel AC50, cells fed with added oleic acid.
[2] abbreviates: measured here: lipid fluorescence (Fed channel) AC50, cells fed with added oleic acid.

As for `Cc1cccc(OCC(=O)Nc2ccc3c(c2)OCO3)c1C`, the cell number change was -16.3%. For `NC(=O)C1CCN(C(=O)CN(C2CCCCC2)S(=O)(=O)c2ccc(F)cc2)CC1`, the cell number change is -23.8%. Further, the half-maximal activity concentration (AC50) (usually the midpoint of the concentration-response curve, whichever way the signal moves) under setting [1] was 0.116 µM [falling, full curve, poor fit]. For the molecule `CCN(CC(=O)Nc1ccc(NC(C)=O)cc1)C(=O)c1sc2nc3n(c(=O)c2c1C)CCC3`, the cell number change was determined as 5.44%. In addition, the AC50 under setting [2] was 2.31 µM [rising, partial curve].

Turning to `COc1ccc(C)cc1S(=O)(=O)N1CCC(C(=O)NCCC2=CCCCC2)CC1`, the cell number change stood at 57.5%. In addition, the AC50 under setting [1] is 29.1 µM [rising, single point]. Turning to `CCOC(=O)c1ccccc1NC(=O)COC(=O)CCC(=O)c1ccc(C)cc1`, the cell number change amounted to 14.5%.

Take `O=C(N/N=C/c1ccc(O)cc1)c1cc(-c2ccccc2)nc2ccccc12`: the cell number change came to 9.01%. For the molecule `Cc1noc(C)c1COc1ccc(C(=O)OCC(=O)N2c3ccccc3NC(=O)C2(C)C)cc1`, the AC50 under setting [2] was 0.13 µM [falling, full curve, poor fit].

As to `CC(Sc1ccc(Cl)cc1)C(=O)NCC1CCCO1` (stereo unspecified), the cell number change is 1.73%. `CCC(C)(C)n1nnnc1C(c1ccc(C)cc1)N(Cc1ccco1)Cc1cccs1` (stereo unspecified): the cell number change was 14.3%. In addition, the AC50 under setting [2] was 0.058 µM [falling, full curve, poor fit]. For `CCOC(=O)N1CCN(S(=O)(=O)c2cc(OCC(=O)NC3CCCCC3)c(C)cc2Cl)CC1`, the AC50 under setting [1] was 6.51 µM [rising, single point].

Take `COc1ccc2nc(NC(=O)c3cccc(-c4cc5ccccc5oc4=O)c3)sc2c1`: the cell number change was -7.14%. Also, the concentration at half-maximal activity (AC50) under setting [2] was 8.2 µM [rising, single point]. In the case of `CCOC(=O)CCC(NC(=O)CC(=O)NC(CCC(=O)OCC)C(=O)OCC)C(=O)OCC` (stereo unspecified), the cell number change is -26.7%. The AC50 under setting [2] was 32.6 µM [falling, partial curve]. For `COc1ccc(-n2c(C)nc3cc(C(=O)N4CCOCC4)ccc32)cc1`, the half-maximal activity concentration (AC50) under setting [2] was 2.31 µM [falling, partial curve].

On to `C/C(=N\NC(=S)Nc1c(C)cccc1C)c1cc2ccccc2o1`, for which the cell number change turned out to be 10%. Regarding `O=C(CCN1CCN(c2ccccc2)CC1)Nc1cccc(Br)c1`, the cell number change came out at 23.6%. Under setting [2], the AC50 is 6.51 µM [rising, full curve]. Take `Cc1ccc(SCc2c(-c3ccccc3)nn(C)c2Cl)cc1`: the cell number change is -15%. Further, the half-maximal activity concentration (AC50) under setting [2] was 20.6 µM [rising, partial curve]. Take `CC1(NC(=O)Nc2ccccc2)CCS(=O)(=O)C1` (stereo unspecified): the cell number change is -13.2%. The AC50 under setting [2] is 0.00651 µM [falling, full curve, poor fit]. `CCn1c(SCC(=O)Nc2oc(-c3ccccc3)c(-c3ccccc3)c2C#N)nnc1-c1ccco1`: the cell number change was 45.2%. The AC50 under setting [1] was 13 µM [rising, partial curve, poor fit]. As for `CN(C)CCCNc1nc(N)c([N+](=O)[O-])c(NCc2ccccc2)n1`, the AC50 under setting [1] is 1.64 µM [rising, partial curve, poor fit].

Regarding `CN(C)CCCN(C(=O)c1cc(Cl)sc1Cl)c1nc2cc3c(cc2s1)OCO3`, the cell number change amounted to 42.7%. Under setting [1], the AC50 is 29.1 µM [rising, single point]. For the same molecule, the AC50 under setting [2] was 25.9 µM [rising, partial curve]. For `CCOC(=O)c1c(C)[nH]c(C(=O)CN2CCOCC2)c1C`, the AC50 under setting [1] is 2.06 µM [rising, partial curve]. For the molecule `CCCc1nc2n[nH]c(N)c2c2c1CCC2`, the cell number change is -8.16%. Also, the AC50 under setting [2] is 2.31 µM [rising, partial curve, poor fit].

On to `COC(=O)c1ccc(NC(=O)CNCc2ccncc2)cc1`, for which the half-maximal activity concentration (AC50) under setting [2] is 11.6 µM [falling, partial curve, poor fit]. With `Cc1ccc2oc3c(c(=O)c2c1)C(c1cccc(O)c1)N(c1ccccn1)C3=O` (stereo unspecified), under setting [2], the AC50 is 18.4 µM [falling, partial curve]. Take `O=C(NCn1ccc(=O)[nH]c1=S)c1ccccc1`: the cell number change is -64.8%. For the same molecule, under setting [1], the AC50 was 29.1 µM [falling, single point]. For the same molecule, the AC50 under setting [2] is 0.146 µM [falling, full curve, poor fit]. Take `COc1cc(/C=C2\C(=N)N3N=C(S(C)(=O)=O)SC3=NC2=O)cc(OC)c1OCCOc1ccccc1C`: the cell number change was -37.8%. For the same molecule, the AC50 under setting [1] is 29.1 µM [falling, single point]. Besides, the AC50 under setting [2] was 29.1 µM [falling, single point]. In the case of `Fc1cccc(CCN2CCNC[C@@H]2c2ccccc2)c1`, the cell number change was 12.8%. The AC50 under setting [1] is 3.26 µM [falling, single point]. The AC50 under setting [2] is 5.8 µM [falling, partial curve, poor fit]. On to `O=C(NCc1ccc2c(c1)OCO2)C1CCCN(S(=O)(=O)c2cccc3nonc23)C1` (stereo unspecified), for which the cell number change came out at 24.1%. Besides, under setting [1], the AC50 is 1.16 µM [rising, full curve, poor fit]. Further, under setting [2], the AC50 was 0.731 µM [rising, partial curve, poor fit]. Take `COc1ccccc1-c1n[nH]c2c1[C@H](C)CC[C@H]2C(C)C`: the cell number change is -16.7%. In addition, the AC50 under setting [2] was 29.1 µM [falling, single point].

In the case of `Cc1cccc(C)c1NC(=S)N/N=C/c1ccc(OCCC(C)C)cc1`, the cell number change is -27.4%. In addition, the AC50 under setting [2] was 29.1 µM [rising, single point].

For the molecule `CCc1cc(=O)[nH]c(SCCc2ccccc2)n1`, the cell number change was 2.8%. `COc1ccc(/C=N/Nc2c(Cl)cc(Cl)cc2Cl)cc1CN1CCOCC1`: the cell number change was -7.9%. Also, the AC50 under setting [2] is 18.4 µM [falling, single point]. With `Cc1ccc(N2C(=O)CC(Nc3ccc(Cl)c(S(=O)(=O)N(C)C)c3)C2=O)c(C)c1` (stereo unspecified), the AC50 under setting [2] is 0.116 µM [rising, single point].

Turning to `Cc1ccc(C(=O)/C=C/c2cn(CN3CCN(C)CC3)c3ccccc23)cc1`, the cell number change is -69.5%. Moreover, the AC50 under setting [2] was 0.58 µM [rising, single point]. For the molecule `Cn1nc(C(F)(F)F)c(-c2ccc(Br)cc2)c1NC(=O)Nc1ccc(F)cc1F`, the cell number change is -55.8%. The AC50 under setting [1] was 29.1 µM [falling, single point]. Under setting [2], the concentration at half-maximal activity (AC50) was 29.1 µM [falling, single point]. Consider `COc1ccccc1CNC(=O)CN1CCC(NC(=O)c2ccccc2F)CC1`, for which the cell number change is -12.4%.

As to `COc1cccc(N2CCN(c3ccc4nnc(CCC(=O)Nc5ncccc5C)n4n3)CC2)c1`, the cell number change is -6.87%. Also, the AC50 under setting [2] was 6.51 µM [falling, single point]. As for `COc1ccc(N2C(=O)CC(N(CCc3ccccc3)C(=O)/C=C/C(=O)O)C2=O)cc1` (stereo unspecified), the AC50 under setting [2] is 0.0058 µM [rising, full curve, poor fit].

The record behind these values is PubChem BioAssay AID2685 (National Center for Advancing Translational Sciences (NCATS), 2010).
